# Results from PubChem BioAssay AID504467 (National Center for Advancing Translational Sciences (NCATS), 2011).
# The whole screen tested about 330,000 compounds, of which about 7,700 (2.3%) were called active. The inconclusive results got no clear call from the source; some entries with a clear call stand among them for comparison. The call rests on the fitted dose curve; in most records, active means well fitted inhibition curve with a large enough effect; inconclusive means small, poorly fitted or top-dose-only effect, or effect the other way; inactive means flat fitted curve, though single readings scatter. Potencies of inconclusive entries are doubtful fits and often do not repeat.
# Assay: qHTS screen for small molecules that inhibit ELG1-dependent DNA repair in human embryonic kidney (HEK293T) cells expressing luciferase-tagged ELG1; further: nearly all actives have a fitted effect of over 55% in size
# Details: HEK293T ELG1-luciferase reporter, luminescence, 16 h, DNA damage induced by 5-fluorouridine; activity change, negative = inhibition: at 46.1 µM (top of the series)
# How it was run: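 In this reporter screen, reduction of luminescence relative to DMSO vehicle indicated activity. Compounds and 5-fluorouridine were added together to 2,000 cells per well, incubated for 16 hr at 37 °C, then developed with ONE-Glo.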
# On the % scale 0 is the no-effect control and ±100 the full control effect; potency means the concentration at half of the fitted maximal effect.
SMILES,Potency,"activity change, negative = inhibition"
COc1ccc(CCNS(=O)(=O)c2cccc(S(=O)(=O)N3CCCC3)c2)cc1OC,"inconclusive: 20.6 µM [inhibitor, partial curve, poor fit]",
CCC(C)C(NC(=O)CCC(=O)OCC(=O)[C@@]1(O)CCC2[C@@H]3CCC4=CC(=O)C=C[C@]4(C)C3[C@@H](O)C[C@@]21C)C(=O)O (some centres undefined),,inactive: -10.6%
CCOc1ccc(-c2nnc3ccc(SCC(=O)NCc4ccco4)nn23)cc1,"inconclusive: 13 µM [inhibitor, partial curve, poor fit]",
CC[n+]1c(C)cc(C)n1-c1ccccc1,,inactive: -8.92%
O=C(NCc1cccnc1)c1ccc2c(c1)N(Cc1ccccc1)CCS2,"inconclusive: 16.4 µM [inhibitor, single point]",
CCCCNC(=O)C(c1ccc(OCC(=O)OC)c(C(=O)OC)c1)N(CCOC)C(=O)CCCCCN1C(=O)NC(c2ccc(-c3ccccc3)cc2)C(C(=O)OCc2ccccc2)=C1C (centres undefined),"inconclusive: 32.6 µM [inhibitor, single point]",
Cc1nc(NC(=O)c2ccc(F)cc2)nc2cc3c(cc12)OCO3,"inconclusive: 5.17 µM [activator, single point]",
COc1ccc(NS(=O)(=O)c2cccc(C(=O)N3CCCCCCC3)c2)cc1,,inactive: -3.69%
Cc1occc1C(=O)NNS(=O)(=O)c1ccc([N+](=O)[O-])cc1,,inactive: -7.43%
COC(=O)Nc1nc2c(s1)CCCC2,"inconclusive: 18.4 µM [activator, partial curve]",
CCOC(=O)C(=NC(C)(C)C)NNc1cc(Cl)ccc1Cl,"inconclusive: 18.4 µM [activator, partial curve, poor fit]",
COc1ccc(CCNC(=O)c2ccc3nc(N4CCOCC4)sc3c2)cc1OC,"inconclusive: 29.1 µM [inhibitor, single point]",
Cc1onc(-c2c(F)cccc2Cl)c1C(=O)N1CCN(c2ncc(Br)cn2)CC1,active: 13 µM,
COC(=O)c1cccc(NC(=O)CCNC(=O)c2ccco2)c1,,inactive: 0.883%
CCc1ccc(NC(=O)Cn2c(=O)oc3cc(S(=O)(=O)N4CCOCC4)ccc32)cc1,"inconclusive: 8.2 µM [inhibitor, partial curve]",
Nc1nc(=S)c2ncn([C@@H]3O[C@H](CO)[C@@H](O)[C@H]3O)c2[nH]1,"inconclusive: 35.5 µM [activator, single point]",
Cc1ccc(C(=O)Nc2nc(=O)n(C)s2)cc1,"inconclusive: 16.4 µM [activator, partial curve]",
Cc1cc(=O)n(C)c2ccccc12,,inactive: 0%
COc1ccc(C)cc1NC(=O)C(=O)NNC(=O)COc1ccc(Cl)cc1,"inconclusive: 32.6 µM [inhibitor, single point]",
Cc1c(OCC(=O)N[C@@H](Cc2c[nH]c3ccccc23)C(=O)O)ccc2c1oc(=O)c1ccccc12,,inactive: 12.4%
O=C(COc1cccc2cccnc12)Nc1ccccc1,"inconclusive: 14.6 µM [activator, partial curve]",
C=CCn1c(C)cc(C(=O)CSc2ccc(NC(C)=O)cc2)c1C,"inconclusive: 13 µM [activator, single point]",

SMILES,Potency,"activity change, negative = inhibition"
Cc1ccc(S(=O)(=O)N2CCCC2)cc1C(=O)N1CCN(Cc2ccccc2)CC1,,inactive: -1.48%
Cc1ccc(Nc2nc3c(c(=O)[nH]c(=O)n3C)n2Cc2ccc(F)cc2)cc1,"inconclusive: 18.4 µM [activator, single point]",
C[C@H](CO)N1C[C@H](C)[C@@H](CN(C)C(=O)NC2CCCCC2)Oc2ccc(NC(=O)Cc3ccccc3)cc2C1=O,,inactive: 5.46%
O=C(CCc1nc2ccccc2c(=O)[nH]1)N1CCN(S(=O)(=O)c2cccc(F)c2)CC1,,inactive: 2.6%
O=C(CCl)Nc1cc2[nH]c(=O)[nH]c2cc1Br,"inconclusive: 29.1 µM [inhibitor, single point]",
COc1ccccc1C(C[N+](=O)[O-])c1c(N)n(C)c(=O)n(C)c1=O (centres undefined),"inconclusive: 29.1 µM [inhibitor, single point]",
Fc1cccc2sc(N3CCCCC3)nc12,"inconclusive: 14.6 µM [activator, partial curve]",
COc1ccc(-n2ccc(=O)c(C(=O)O)n2)cc1,,inactive: -0.773%
Cc1cccc(C(=O)NNC(=O)c2n[nH]c(=O)c3ccccc23)c1C,"inconclusive: 18.3 µM [activator, partial curve]",
CCOC(=O)c1[nH]c(C)c(C(=O)OCC(=O)NCc2ccc(OC)c(OC)c2)c1C,active: 11.2 µM,
CCOC(=O)c1oc2ccccc2c1COC(=O)CNC(=O)c1cccc(C)c1,"inconclusive: 25.9 µM [activator, single point]",
CC(/C=N/NC(=O)c1ccc(Br)cc1)=C\c1ccccc1,"inconclusive: 20.6 µM [activator, single point]",
O=C(CCN1C(=O)c2ccccc2C1=O)Oc1ccc2ccccc2c1,,inconclusive: 2.01% [activator]
Cc1ccc(CNC(=O)CN(C)S(=O)(=O)c2ccc3c(c2)n(C)c(=O)c(=O)n3C)cc1,,inactive: 14.9%
Cc1cc(SCC(=O)N2CCC(c3noc4ccc(F)cc34)CC2)nc2ccccc12,active: 20.6 µM,
Clc1cccc(Cl)c1Cn1ccc(C2CC2)n1,"inconclusive: 23.1 µM [activator, partial curve]",
Clc1cccc(Cl)c1CSc1nnc(/C=C/c2ccccc2)o1,"inconclusive: 3.26 µM [activator, partial curve, poor fit]",
O=C(CN(C(=O)CSc1nnc(COc2ccccc2)o1)c1ccc(F)cc1)NC1CCCCC1,"inconclusive: 17.8 µM [inhibitor, single point]",
CCN1CCN(C(c2cccs2)C(C)NC(=O)C(=O)N2CCCCC2)CC1 (centres undefined),"inconclusive: 16.4 µM [activator, single point]",
CCOc1ccccc1NC(=O)C1C2CCC(O2)C1C(=O)O (centres undefined),"inconclusive: 16.4 µM [activator, partial curve]",
Cc1nn(Cc2ccc(Cl)cc2)c(=O)n1N(C)c1ncc(C(F)(F)F)cc1Cl,,inactive: -10.5%
CN(C)CCN(C(=O)c1ccc(S(=O)(=O)N(C)CC2CCCO2)cc1)c1nc2cc3c(cc2s1)OCO3 (centres undefined),"inconclusive: 16.4 µM [activator, partial curve, poor fit]",

# As entered above.
# Potency, C=CCn1c(C)cc(C(=O)CSc2ccc(NC(C)=O)cc2)c1C reads inconclusive: 13 µM [activator, single point]
# Potency, Cc1ccc(C(=O)Nc2nc(=O)n(C)s2)cc1 reads inconclusive: 16.4 µM [activator, partial curve]
# Potency, COc1ccc(C)cc1NC(=O)C(=O)NNC(=O)COc1ccc(Cl)cc1 reads inconclusive: 32.6 µM [inhibitor, single point]
# Potency, CCCCNC(=O)C(c1ccc(OCC(=O)OC)c(C(=O)OC)c1)N(CCOC)C(=O)CCCCCN1C(=O)NC(c2ccc(-c3ccccc3)cc2)C(C(=O)OCc2ccccc2)=C1C (centres undefined) reads inconclusive: 32.6 µM [inhibitor, single point]
